Measured values from article PMC4762385.
These are yes or no findings as the source states them, for the method shown. Binding seen in cells or lysates may run through a third protein. Some binding calls cover weakened binding; strength is not graded here. Tags and fused reporters may be left off the sequences shown.

Molecular target: T1, OsRPA2c-GST (rice (Oryza sativa L.)) (UniProt Q5Z8L1)
T1 sequence: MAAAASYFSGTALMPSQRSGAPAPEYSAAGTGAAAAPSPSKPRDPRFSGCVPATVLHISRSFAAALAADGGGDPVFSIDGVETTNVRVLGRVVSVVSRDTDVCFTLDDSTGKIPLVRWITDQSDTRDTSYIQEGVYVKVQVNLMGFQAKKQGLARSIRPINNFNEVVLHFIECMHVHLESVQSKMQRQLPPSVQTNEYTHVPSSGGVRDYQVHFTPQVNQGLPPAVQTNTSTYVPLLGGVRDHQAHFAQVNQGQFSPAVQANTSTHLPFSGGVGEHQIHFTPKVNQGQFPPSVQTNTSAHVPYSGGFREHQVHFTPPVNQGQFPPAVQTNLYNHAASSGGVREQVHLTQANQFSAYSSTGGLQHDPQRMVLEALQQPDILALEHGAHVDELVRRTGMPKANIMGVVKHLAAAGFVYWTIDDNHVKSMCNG
Test: pull-down; OsRPA2C–GST-coupled beads used to capture MBP fusions (methods); result in Supplementary Fig. S10, whose method the text does not name

binding: binds
B1: MBP–OsRPA1c (protein, UniProt Q65XV7 1-951)
chain: MEPQLTPGAVQAIAEHPDGTGTIQPVLQVVDVRPVTTKNAPPTPKPAERFRMMLSDGVNTQQSMLATALNPLVKDATLRPGTVVQLTDFMCNTIQGKRIIIVVKLDVLQNDCIVIGNPKHYEPKSLTKEQDPNLQASVAQTNNGTYSGGASMLGPSVAPRAEQAASNSSYGGPYNSAQGMLGSSIGRTVEPGPANVSAVGSYGAISAQNTTNANMMQPTSQLNIMNANTMQPTSQLNTMNANTMQPTSQLSSLNPNQNQRFAAPASGGVFGPPGNAYGQPSRPSYQQPPPVYMNRGPASRNDSATRIIPITALNPYQPKWTIKARVTAKSDIRHWSNARSSGTVFSFDLLDAQGGEIRAQCWKESADKFFGQIEVGRVYLISRGSLKPAQKKYNTLNHDYEITLDIGLSTVEVCSDDDNSIPRLQYNFRQISELENMANETIVDLLGVVTSVSPSATIMRKIGTETRKRSIQLKDLSGRSIEVTLWGNFCDAEGQQLQLQCDSGSNPIIAFKGARVGDFNGKSVSTIGSTQLIINPDFPEVERLRQWYMTEGKTAPCISLSREMLNMGRTDARKTIAQIKDENLGRLEKPDWITVKAAISHVTTESFCYPACPKLLPVGRQCNKKAINNGDGMWHCDRCDESFQNPEYRYMLRFQIQDHTGSTYASAFDEAGEQIFGRKAGELFSIRNVDQDDAQFAEIIEGVRWHLYLFKLKVKEETYNDEQSLKCTAVKVEKLDPSKESNVLLGAIDNLLLDPKGQSDLAPNAGFTDPVGGHGAPTSSNAYAMNTGGVNQFGQQASISAGMSTPLAATRNLQTCSICGANGHSAQICHVGADMDMQETSAGGSSMGNYNSIAGNGSSECYKCKQPGHYARDCPGQSTGGLECFKCKQPGHFSRDCPVQSTGGSECFKCKQPGHFARDCPGQSTGAQHQTYGNNVAASRGYNRQSFVGGY
